From PubChem BioAssay AID2517 (National Center for Advancing Translational Sciences (NCATS), 2010)
Screen size: about 350,000 compounds; about 1,200 (0.34%) were called active. This list was built around the results that the source calls inconclusive (neither active nor inactive); the mix of calls is not that of the screen. Calls follow the shape of the dose curve; as a rule, active = well fitted inhibition curve with a large enough effect; inconclusive = small, poorly fitted or top-dose-only effect; inactive = no such curve, though single readings can be large or run the other way. A potency beside an inconclusive call is a rough fit, not a confirmed value.

Chains of the proteins cited; added tags and fusions are not shown.
UniProt P27695, whole entry, looked up: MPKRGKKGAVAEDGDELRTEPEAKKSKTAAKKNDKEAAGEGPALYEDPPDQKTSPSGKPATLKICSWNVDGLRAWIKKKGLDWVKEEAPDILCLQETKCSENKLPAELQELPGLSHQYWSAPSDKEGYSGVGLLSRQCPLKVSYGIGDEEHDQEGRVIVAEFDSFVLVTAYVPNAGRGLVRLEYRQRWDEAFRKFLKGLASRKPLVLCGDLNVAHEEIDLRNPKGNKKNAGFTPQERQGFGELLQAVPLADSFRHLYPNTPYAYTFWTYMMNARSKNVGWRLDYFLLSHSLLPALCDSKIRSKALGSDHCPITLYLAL

The compounds below were run against DNA repair nuclease/redox regulator APEX1 (Homo sapiens) (UniProt P27695) (assay: qHTS Assay for Inhibitors of the Human Apurinic/apyrimidinic Endonuclease 1 (APE1)). Details: recombinant APE1, TAMRA/BHQ-2 abasic DNA cleavage fluorescence; series mostly up to 65.8 µM.
Method in brief: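 Measures dequenching upon AP-site incision of a 5'-TAMRA/3'-BHQ-2 THF-containing duplex, 50 nM; human APE1 0.75 nM after 15 min room-temperature exposure to compound; kinetic three-point read at one-minute spacing.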
Also: nearly all actives have a fitted effect of over 55% in size.
Potency is read from the fitted curve at half-maximal effect.

Row | SMILES | Potency
1 | O=C(CSc1nc2ccsc2c(=O)n1CC1CCC(C(=O)O)CC1)c1ccc(Cl)cc1 (stereo not drawn) | inconclusive: 39.8 µM [inhibitor, partial curve]
2 | CC(C)=C1CCC(C)CC1=O (stereo not drawn) | inactive
3 | Cn1c(C(=O)c2ccncc2)cc2ccccc21 | inconclusive: 5.62 µM [inhibitor, single point]
4 | COc1ccc(NS(=O)(=O)c2cc(NC(=O)c3ccc(F)cc3)ccc2OC)cc1 | inconclusive: 35.5 µM [inhibitor, single point]
5 | Cc1cc(=O)n2[nH]c(-c3ccsc3-n3c(C)ccc3C)cc2n1 | active: 3.55 µM
6 | COC(=O)c1cccc(NC(N)=S)c1 | inactive
7 | Cc1nc2ccccn2c1C(=O)NN | inconclusive: 0.0794 µM [inhibitor, full curve, poor fit]
8 | COc1ccc(S(=O)(=O)N2CCC(n3cnc4ccccc43)CC2)cc1 | inactive
9 | Cc1cccnc1NC(=S)NC(=O)/C=C/c1ccco1 | inconclusive: 28.2 µM [inhibitor, single point]
10 | COC(=O)C1=C(C)NC(C)=C(C(=O)OCCN(C)Cc2ccccc2)C1c1cccc([N+](=O)[O-])c1 (stereo not drawn) | inconclusive: 20 µM [inhibitor, single point]
11 | COc1ccc(NS(=O)(=O)c2ccc(NN=Cc3ccc(C(=O)O)cc3)c([N+](=O)[O-])c2)cc1 | inconclusive: 26.7 µM [inhibitor, single point]
12 | COc1cc2[nH]c(=S)nc(NCC3CCCO3)c2cc1OC (stereo not drawn) | inactive
13 | O=c1cc2c(nn1Cc1ccc(Cl)cc1)-c1ccccc1CC2 | inconclusive: 0.0501 µM [inhibitor, full curve, poor fit]
14 | COC1=C/C(=C/c2c(N)n3nc(CC(=O)N4CCCCC4)sc3nc2=O)C=CC1=O | inactive
15 | Cc1ccc(/C=C2\SC(=S)N(C(Cc3ccccc3)C(=O)O)C2=O)cc1 (stereo not drawn) | inactive
16 | O=C(OCc1cc(=O)n2c(n1)sc1ccccc12)c1ccc2c(=O)n3c(nc2c1)CCC3 | inconclusive: 31.6 µM [inhibitor, single point]
17 | O=C(Nc1ccc(N2CCOCC2)cc1)Nc1ccc2nc(-c3ccco3)c(-c3ccco3)nc2c1 | inactive
18 | CC(C)=CCc1c2c(c3occ(-c4ccc(O)cc4)c(=O)c3c1O)C=CC(C)(C)O2 | inconclusive: 17.8 µM [inhibitor, partial curve]
19 | CCn1c(CC(=O)Nc2cccc(OC)c2)nnc1SCC(=O)Nc1nccs1 | inconclusive: 39.8 µM [inhibitor, single point]
20 | O=C1Nc2ccc(S(=O)(=O)NCc3ccccn3)c3cccc1c23 | inactive
21 | Nc1ccc2c(c1Cl)C(=O)c1ccc(N)c(Cl)c1C2=O | active: 8.91 µM
22 | CN(C)c1ccc(-c2nc(NCCN3CCOCC3)c3ccccc3n2)cc1 | inconclusive: 44.7 µM [inhibitor, single point]

Row | SMILES | Potency
23 | Cc1cc(SCC(=O)c2ccc(O)c(O)c2)nc2ccccc12 | inconclusive: 20 µM [inhibitor, partial curve]
24 | CCOC(=O)CN1C(=O)N[C@H](c2ccc(Br)cc2)C(C(C)=O)=C1C | active: 31.6 µM
25 | CC(C)(C)c1ccc(C(=O)N/C(=C\c2cccc([N+](=O)[O-])c2)C(=O)Nc2cccc(C(=O)O)c2)cc1 | inconclusive: 29.9 µM [inhibitor, single point]
26 | COc1ccc(C(=O)c2sc(Nc3ccccc3)c(C(=O)Nc3ccc(OC)c(OC)c3)c2N)cc1 | inconclusive: 22.4 µM [inhibitor, partial curve, poor fit]
27 | O=C(Nc1ccc(O)cc1)c1cc2ccccc2c(=O)s1 | inconclusive: 25.1 µM [inhibitor, single point]
28 | Cc1ccc(S(=O)(=O)N[C@H]2COC(=O)C/C=C\[C@H](C)[C@@H](NS(=O)(=O)c3ccc(C)cc3)COC(=O)C/C=C\[C@@H]2C)cc1 | inconclusive: 7.94 µM [inhibitor, single point]
29 | O=C(Cc1ccc(Cl)cc1)Nc1cccc(S(=O)(=O)Nc2ccccc2F)c1 | inconclusive: 0.0045 µM [inhibitor, full curve, poor fit]
30 | COc1cc2ncnc(NCc3ccc(C)o3)c2cc1OC | inconclusive: 22.4 µM [inhibitor, single point]
31 | COC(=O)N[C@@H](CCc1ccccc1)/C(C(=O)OC)=C(\C)NCc1ccccc1 | inactive
32 | COc1ccc(OC)c(CCNC(=O)CSc2ccsc2[N+](=O)[O-])c1 | inactive
33 | COc1cc(/C=C2\CCn3c2nc2cc(C(=O)O)ccc2c3=O)ccc1OC(F)F | inconclusive: 29.9 µM [inhibitor, single point]
34 | O=C(CN1C(=O)c2ccccc2S1(=O)=O)c1ccc2c(c1)OCCCO2 | inconclusive: 2.82 µM [inhibitor, partial curve]
35 | CC(C)(C)n1ncc2c(=O)n(Cc3ccccc3)cnc21 | inactive
36 | CCC(C)NC(=O)c1c(N)n(/N=C/c2cccnc2)c2nc3ccccc3nc12 (stereo not drawn) | inconclusive: 3.98 µM [inhibitor, partial curve]
37 | c1ccc(N2CCN(c3ncnc4c3oc3ccccc34)CC2)cc1 | inconclusive: 35.5 µM [inhibitor, single point]
38 | O=[N+]([O-])c1cc2c(cc1/C=N/n1c(-c3ccccn3)n[nH]c1=S)OCO2 | inconclusive: 39.8 µM [inhibitor, single point]
39 | O=C1OCc2ccc(NC(=O)c3ccccc3C(=O)O)cc21 | inactive
40 | O=C(CC1NCCNC1=O)NC1Cc2ccccc2C1 (stereo not drawn) | inconclusive: 7.94 µM [inhibitor, single point]
41 | Cc1cc(C)c(O)c(-c2n[nH]c3c2C(c2cccc(O)c2)N(Cc2ccco2)C3=O)c1 (stereo not drawn) | inconclusive: 15.8 µM [inhibitor, partial curve]
42 | O=c1[nH]c2ccccc2nc1C(F)(F)C(F)F | inconclusive: 3.55 µM [inhibitor, single point]
43 | CCc1ccccc1NS(=O)(=O)c1ccc2[nH]cc(C(=O)NC3CCCC3)c(=O)c2c1 | inconclusive: 22.4 µM [inhibitor, single point]

An excerpt of these results, in markdown.

| Row | SMILES | Potency |
| --- | --- | --- |
| 28 | Cc1ccc(S(=O)(=O)N[C@H]2COC(=O)C/C=C\[C@H](C)[C@@H](NS(=O)(=O)c3ccc(C)cc3)COC(=O)C/C=C\[C@@H]2C)cc1 | inconclusive: 7.94 µM [inhibitor, single point] |
| 29 | O=C(Cc1ccc(Cl)cc1)Nc1cccc(S(=O)(=O)Nc2ccccc2F)c1 | inconclusive: 0.0045 µM [inhibitor, full curve, poor fit] |
